The structures given here were assigned with low confidence; some may be wrong.

The chains behind the UniProt entries cited, without tags or fusion partners.
UniProt Q92633, whole entry: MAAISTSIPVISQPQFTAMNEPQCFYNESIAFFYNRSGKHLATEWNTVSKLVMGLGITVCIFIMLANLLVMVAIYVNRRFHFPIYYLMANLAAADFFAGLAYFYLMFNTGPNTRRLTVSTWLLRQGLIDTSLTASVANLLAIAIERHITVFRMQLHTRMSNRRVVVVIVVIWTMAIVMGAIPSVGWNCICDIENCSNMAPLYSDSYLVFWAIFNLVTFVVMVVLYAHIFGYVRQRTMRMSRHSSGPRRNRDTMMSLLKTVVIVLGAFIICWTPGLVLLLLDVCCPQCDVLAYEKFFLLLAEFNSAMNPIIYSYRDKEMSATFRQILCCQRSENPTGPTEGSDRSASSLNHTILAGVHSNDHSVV

The assay addresses human LPAR1 (Homo sapiens, UniProt Q92633). Kind of assay: Arrestin assay (Arrestin Reporter EDG2-bla U2OS), inhibition of LPA-stimulated signal. Conditions: read-out: Arrestin Reporter EDG2-bla U2OS Human Merged IC50; TangoEDG2-bla U2OS cells expressing human LPAR1; 0.25 μM LPA. As for the experimental part:
The inhibitory activity of compounds 15, 62, 77, 84 and 169 against LPAR1 was measured using an Arrestin assay in U2OS cells expressing human LPAR1.
FreeStyle media was warmed in a 37° C. water bath. Cryo-preserved vial(s) of TangoEDG2-bla U2OS cells were rapidly thawed in a 37° C. water bath. The thawed cells were added to FreeStyle media and cells were pelleted at 300×g for 5 minutes. The supernatant was aspirated, and cells were resuspended in FreeStyle media. Cell density was adjusted to 0.25×10^6 cells/mL. Cells (1×10^4 in 40 μL) were added to each well of Greiner 384 well black cell plate(s). Cell plate(s) were placed in a humidified 37° C./5% CO2 incubator for 18-20 hours. Dilutions of test compound were prepared at 6× final concentration; 12-point, 3-fold dilutions using HH Buffer (1×HBSS plus 20 mM HEPES). The 6× test compound was then added to the cell plate(s) at 10 μL/well. The final concentration ranged from 10 μM to 0.00006 μM. Cell plate(s) were incubated in a humidified 37° C./5% CO2 incubator for 1 hour. During the incubation, 6×LPA was prepared at 1.5 μM in 0.1% BSA HH Buffer. After the 1-hour incubation of test compound with cells, the LPA was added to the cell plate(s) at 10 μL/well (final LPA concentration of 0.25 μM). Cell plate(s) were returned to a humidified 37° C./5% CO2 incubator for 3 hours. The Development solution was made up per the LiveBLAzerFRET B/G kit protocol. The Development solution was added to the cell plate(s) at 10 μL/well. Cell plates were incubated in the dark at room temperature for 2 hours. Plate(s) were read on an Envision Plate Reader (Perkin Elmer) to read fluorescence; excitation at 409 nm with emission at 460 nm and 530 nm. Raw Data for analysis is the ratio of emission at 460 nm divided by emission 530 nm. The formula used to determine % Inhibition is as follows (1−(Raw Data−Low Average)/(High Average−Low Average))*100. Percent Inhibition was plotted to determine IC50 value with GraphPad Prism 9.5.0 software using Variable slope 4-parameter curve fit analysis.
Additional compounds of the present disclosure were synthesized in a manner similar to the compounds described above and understood by a person of ordinary skill in the art. The inhibitory activity of the compounds of the present disclosure against LPAR1 was measured using the above-referenced Arrestin Assay protocol.
The term IC50 denotes the concentration that inhibits the measured activity by half. `COc1cnn(C2(C(=O)Nc3ccc(Cl)cc3OC(F)F)CCN(C[C@@H](CC#N)C(=O)O)CC2)c1C(C)C`: the IC50 came to 118 nM.
With `CCOCC(CN1CCC(C(=O)Nc2ccc(Cl)cc2OC(F)F)(n2nccc2C(C)C)CC1)C(=O)O` (stereo not shown), the half-maximal inhibitory concentration (IC50) stood at 41.7 nM.
As for `COC(CN1CCC(C(=O)Nc2ccc(Cl)cc2OC(F)F)(n2nccc2C(C)C)CC1)C(=O)O` (stereo not shown), the figure is 88 nM; as for `COc1cnn(C2(C(=O)Nc3ccc(Cl)cc3OC(F)F)CCN(C[C@H](CC#N)C(=O)O)CC2)c1C(C)C`, 75.4 nM.

For the origin of these results see patent US20260102383A1, “LPAR1 Inhibitors” (AbbVie Inc., priority 2024, published 2026).
